# Test results: paper PMC7819943, “Rice protein-binding microarrays: a tool to detect cis-acting elements near promoter regions in rice”
# Some of the results follow.
# Target: T1, OsSMF1 (Oryza sativa, UniProt Q6ZLB0 1-436)
# T1 sequence: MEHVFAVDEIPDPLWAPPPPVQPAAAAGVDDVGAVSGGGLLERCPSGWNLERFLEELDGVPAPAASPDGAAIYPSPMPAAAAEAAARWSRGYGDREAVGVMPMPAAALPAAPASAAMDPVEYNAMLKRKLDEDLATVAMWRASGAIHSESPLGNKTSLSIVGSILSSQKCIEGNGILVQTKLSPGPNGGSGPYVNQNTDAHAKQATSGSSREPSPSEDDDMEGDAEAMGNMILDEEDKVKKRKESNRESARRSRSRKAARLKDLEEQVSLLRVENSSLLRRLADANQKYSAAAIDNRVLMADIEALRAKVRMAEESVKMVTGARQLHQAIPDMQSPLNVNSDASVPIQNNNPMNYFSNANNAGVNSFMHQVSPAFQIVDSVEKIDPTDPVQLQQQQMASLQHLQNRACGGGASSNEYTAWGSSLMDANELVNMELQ
# Assay: protein-binding microarray (RPBM); PBS, 2% BSA, 51.3 ng/ul salmon testes DNA, 50 uM zinc acetate, 200 nM TF, 25 C, 1 h; high values mean tight binding
# Settings: protein: recombinant; tags: N-terminal polyhistidine and DsRed monomer fusion (pET32a); chain copies: 2; label: CyDye5-dUTP incorporated in the synthesized complementary strand; 3' TTTTT single-stranded linker to array surface; dsDNA, one strand shown
# Summary of the method: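 Per-feature fluorescence intensity (arbitrary units), read on an Axon 4000B scanner, is the binding signal. Transcription factors carrying an N-terminal polyhistidine tag and DsRed fusion were expressed in E. coli BL21-CodonPlus and purified on Ni–NTA. A custom Agilent array, made double-stranded by primer extension with Cy5-dUTP and blocked with 2% BSA, was incubated with 200 nM protein in PBS, 2% BSA, salmon testes DNA and 50 µM zinc acetate at 25 °C for 1 h and then washed.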
row,Sequence,binding signal
1,GTCTTCTCCCAAAAGAAGCCCACGTATTCCATATTTCCGTCGGAGTCACCTAGTGCAG,3840 fluorescence intensity (a.u.)
2,AATCCCAAAACTTTCATGTTCAATTTCATACAAACAATTCCGGAGTCACCTAGTGCAG,3240 fluorescence intensity (a.u.)
3,GCTTAGTGTTGAGATGATCCATGTCATCTCGTGCTAGCTACGGAGTCACCTAGTGCAG,7710 fluorescence intensity (a.u.)
4,CGCGAGCCTTGCGCGTTGGGCCTGGCACGTGTGCGGCCCACGGAGTCACCTAGTGCAG,3610 fluorescence intensity (a.u.)
5,GAACCGAACGCGACGCAGCGCGGCGAAGTCAGCAGCTTCCCGGAGTCACCTAGTGCAG,4580 fluorescence intensity (a.u.)
6,GCTGCCGACGCAGCTCCGGCCACGACCGCCGCCGTGCGTGCGGAGTCACCTAGTGCAG,3920 fluorescence intensity (a.u.)
7,TTCCTTCCCGAGGCCTACGTGTCCCCTCCCGCATCTCCACCGGAGTCACCTAGTGCAG,13000 fluorescence intensity (a.u.)
8,ACTGTCCATTGCATTTGCACGTACGCAGTCATCAACAGATCGGAGTCACCTAGTGCAG,3140 fluorescence intensity (a.u.)
9,CAGTGTTGCCGCCGTCATCCTCCCAGCGCCCTATTCACCTCGGAGTCACCTAGTGCAG,5000 fluorescence intensity (a.u.)
10,AACTGAAAATTTTATACAACTTTTAGGTATTGCAAAGGACCGGAGTCACCTAGTGCAG,31600 fluorescence intensity (a.u.)
11,GCCACGGTCTCGTTGTGATGTTGTGATATTAGGTTCACTGCGGAGTCACCTAGTGCAG,46600 fluorescence intensity (a.u.)
12,GTGATTAGCCCATACTAATTGGGCCATGATGGGATTCTGACGGAGTCACCTAGTGCAG,28300 fluorescence intensity (a.u.)
13,GTGCAGAAGTTACCACGTCATTCCTGGGCGGCTGCCGCGTCGGAGTCACCTAGTGCAG,10800 fluorescence intensity (a.u.)
14,TAACAGAGCTTGTCCGACGAAGCATGATTCAAGTCGTAGCCGGAGTCACCTAGTGCAG,29900 fluorescence intensity (a.u.)
15,TGGAAACTCGCGCGCGCGCGCGAGCGGCGGGCGGCTTTTCCGGAGTCACCTAGTGCAG,16900 fluorescence intensity (a.u.)
16,AAAACCAAGATGAAATCACAGTGCTCTAATTATTTGTATCCGGAGTCACCTAGTGCAG,21600 fluorescence intensity (a.u.)
17,ACTTGCTAGGGTCGCTGTCAGGCGTGACAAACTGAGCAGTCGGAGTCACCTAGTGCAG,3170 fluorescence intensity (a.u.)
18,CGACTTCGACTACGACGAGCTCTTCGTCGACACCACCCCACGGAGTCACCTAGTGCAG,3880 fluorescence intensity (a.u.)
19,AGCACACATACTAGTACTATATGACAAGTCCACGGAGAGCCGGAGTCACCTAGTGCAG,3760 fluorescence intensity (a.u.)
20,CCATCCCATGGTGGGCCGGTTAGTTCTGTTCCTGGGCCATCGGAGTCACCTAGTGCAG,64400 fluorescence intensity (a.u.)
21,GGGGCGGCCGGGCACACGCAGAGCCACGTGGTGGTGGGGCCGGAGTCACCTAGTGCAG,7320 fluorescence intensity (a.u.)

row,Sequence,binding signal
1,CATGGACTCTTGTGACTTTGTGGTGTGAGAGTGGGTTTTGCGGAGTCACCTAGTGCAG,3320 fluorescence intensity (a.u.)
2,CCGTATCGATCGGCGTCACATCTCACATGTACTTCCCCAGCGGAGTCACCTAGTGCAG,6050 fluorescence intensity (a.u.)
3,TCGGAAGTACGTCAAGGAGGGAATCTGTGTCACTCTCCCGCGGAGTCACCTAGTGCAG,3730 fluorescence intensity (a.u.)
4,CTCTCCCCTAGGCCCTCTGACGTAGCCAACTTGCGGAAGCCGGAGTCACCTAGTGCAG,7020 fluorescence intensity (a.u.)
5,TGGGCTCTTAGTTGTCACCATGACTAGCTAGAGTTGTAGCCGGAGTCACCTAGTGCAG,3170 fluorescence intensity (a.u.)
6,AAAGGTGATGCATTTGAAATGAATGCTCATCAGCATATGACGGAGTCACCTAGTGCAG,3150 fluorescence intensity (a.u.)
7,TGCCCGGCCGCCGCCGAGAGGTCGATCAGCGGCCCGTACCCGGAGTCACCTAGTGCAG,7850 fluorescence intensity (a.u.)
8,AGGAGAAGTAGTATGATGACTACTTGTTTGGTTTAGTTCACGGAGTCACCTAGTGCAG,3180 fluorescence intensity (a.u.)
9,CCGATGCCGACTTACGCGTAACGTGAAGGCCTAGGCTGTGCGGAGTCACCTAGTGCAG,3560 fluorescence intensity (a.u.)
10,TTGGATGACACAACAACATGTAAGGTTAGAAACGATATGTCGGAGTCACCTAGTGCAG,3990 fluorescence intensity (a.u.)
11,GCGTTTCCGCCAAGCAAAGTCCACGCCACCCGCAACCACCCGGAGTCACCTAGTGCAG,4440 fluorescence intensity (a.u.)
12,TCGGAGATACTCGTAAGGGGTATGATGTGTGTACATTTATCGGAGTCACCTAGTGCAG,3230 fluorescence intensity (a.u.)
13,ATCATCCTTTATGTGTATCACGGAAACCTACGCTAGTGCTCGGAGTCACCTAGTGCAG,15500 fluorescence intensity (a.u.)
14,CTGCTCATCATTTGCGCTGCGACGCTGACGCGTGCGCCCACGGAGTCACCTAGTGCAG,6790 fluorescence intensity (a.u.)
15,GGGTGTTGGTTGTGTGTGGTGGCTGCCAAATGGCTCGTGGCGGAGTCACCTAGTGCAG,3480 fluorescence intensity (a.u.)
16,TGCGCCGATAGCTCCTGTCAACGTGTCACGCGCTGCGCCTCGGAGTCACCTAGTGCAG,8650 fluorescence intensity (a.u.)
17,CGAGCAAGACGACGAGACCGGTCTCGCTATCGTCGCGTGACGGAGTCACCTAGTGCAG,3390 fluorescence intensity (a.u.)
18,GCAATGCATTTCAAATTCAGGACCCCATAGAGAAATCAACCGGAGTCACCTAGTGCAG,29200 fluorescence intensity (a.u.)
19,ACACACGTAACTCATGCACCCTCGTTTCTACGAGATGAACCGGAGTCACCTAGTGCAG,3220 fluorescence intensity (a.u.)
20,CTCTCTCGCTCTAAATTACTGTATCGCCGTCATGTACGCCCGGAGTCACCTAGTGCAG,3910 fluorescence intensity (a.u.)
21,TTTTGCATGTCATATTGAATATTATATGGGGTGTCACATGCGGAGTCACCTAGTGCAG,4810 fluorescence intensity (a.u.)

# Reformatted bar-delimited: part of the list above
row | Sequence | binding signal
3 | TCGGAAGTACGTCAAGGAGGGAATCTGTGTCACTCTCCCGCGGAGTCACCTAGTGCAG | 3730 fluorescence intensity (a.u.)
18 | GCAATGCATTTCAAATTCAGGACCCCATAGAGAAATCAACCGGAGTCACCTAGTGCAG | 29200 fluorescence intensity (a.u.)
